Data taken from publication PMC11763476.
These are yes or no findings as the source states them, for the method shown. Binding seen in cells or lysates may run through a third protein. Some binding calls cover weakened binding; strength is not graded here. For some of these results: Sequences can lack the tags named with a protein.

Sequences of proteins named here, by UniProt entry; tags and fusion partners are left off.
UniProt P10275: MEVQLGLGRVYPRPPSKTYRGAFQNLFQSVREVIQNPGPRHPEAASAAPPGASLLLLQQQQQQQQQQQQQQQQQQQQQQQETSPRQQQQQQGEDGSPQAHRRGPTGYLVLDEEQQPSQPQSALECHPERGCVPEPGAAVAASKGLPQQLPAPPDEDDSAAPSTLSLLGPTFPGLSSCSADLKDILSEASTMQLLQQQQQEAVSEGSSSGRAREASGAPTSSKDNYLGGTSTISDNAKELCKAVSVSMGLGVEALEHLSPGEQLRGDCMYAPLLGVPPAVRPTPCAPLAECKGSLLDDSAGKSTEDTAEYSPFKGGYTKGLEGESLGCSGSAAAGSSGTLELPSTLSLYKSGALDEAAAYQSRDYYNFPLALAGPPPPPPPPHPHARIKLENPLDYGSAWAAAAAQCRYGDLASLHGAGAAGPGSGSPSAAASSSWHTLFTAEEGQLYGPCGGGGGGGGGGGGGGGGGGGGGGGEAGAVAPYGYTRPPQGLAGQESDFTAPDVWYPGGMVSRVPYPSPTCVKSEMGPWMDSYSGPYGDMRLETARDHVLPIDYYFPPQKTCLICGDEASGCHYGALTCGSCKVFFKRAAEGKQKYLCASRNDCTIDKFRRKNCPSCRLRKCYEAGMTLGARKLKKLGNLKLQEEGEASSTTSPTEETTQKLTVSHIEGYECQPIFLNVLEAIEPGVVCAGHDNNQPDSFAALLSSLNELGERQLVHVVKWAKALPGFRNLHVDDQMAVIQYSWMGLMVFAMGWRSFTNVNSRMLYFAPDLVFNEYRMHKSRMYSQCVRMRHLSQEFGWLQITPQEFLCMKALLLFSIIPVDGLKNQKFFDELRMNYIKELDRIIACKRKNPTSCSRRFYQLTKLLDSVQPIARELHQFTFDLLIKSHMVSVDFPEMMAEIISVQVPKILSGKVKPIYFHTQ

T1: N-terminal-tagged FOXA1 (NanoBiT construct) (UniProt P55317)
T1 sequence: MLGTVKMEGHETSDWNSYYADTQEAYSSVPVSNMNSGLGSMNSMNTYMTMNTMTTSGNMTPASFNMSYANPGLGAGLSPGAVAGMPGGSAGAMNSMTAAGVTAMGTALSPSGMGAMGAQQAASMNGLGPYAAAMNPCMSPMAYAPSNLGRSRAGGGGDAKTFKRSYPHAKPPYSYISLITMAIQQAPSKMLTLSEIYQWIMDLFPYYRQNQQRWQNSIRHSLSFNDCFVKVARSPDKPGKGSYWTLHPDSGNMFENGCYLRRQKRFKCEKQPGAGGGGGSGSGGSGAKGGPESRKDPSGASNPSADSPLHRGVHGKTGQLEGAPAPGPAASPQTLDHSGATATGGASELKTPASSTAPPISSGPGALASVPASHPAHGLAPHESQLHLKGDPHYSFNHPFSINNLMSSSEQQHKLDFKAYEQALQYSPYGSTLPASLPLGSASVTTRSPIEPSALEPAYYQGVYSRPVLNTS

T2: Forkhead box A1 (FOXA1), endogenous in prostate cancer cells (human (endogenous in LNCaP and CWR-R1)) (UniProt P55317)
T2 sequence: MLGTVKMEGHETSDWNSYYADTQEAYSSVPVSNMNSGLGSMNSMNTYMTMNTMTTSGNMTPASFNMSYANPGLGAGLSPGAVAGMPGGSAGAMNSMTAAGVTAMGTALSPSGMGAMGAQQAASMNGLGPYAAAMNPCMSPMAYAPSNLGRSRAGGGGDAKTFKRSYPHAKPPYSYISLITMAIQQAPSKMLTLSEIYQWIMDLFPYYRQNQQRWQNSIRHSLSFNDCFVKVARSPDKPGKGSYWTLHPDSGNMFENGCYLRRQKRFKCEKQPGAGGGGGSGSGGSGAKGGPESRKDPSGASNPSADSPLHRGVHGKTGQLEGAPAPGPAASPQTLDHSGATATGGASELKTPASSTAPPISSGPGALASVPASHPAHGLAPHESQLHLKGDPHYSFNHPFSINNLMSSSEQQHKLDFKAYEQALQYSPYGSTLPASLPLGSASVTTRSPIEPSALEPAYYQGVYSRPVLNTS


Experiments:
[1] = target: N-terminal tagged AR (NanoBiT construct) (UniProt P10275); experiment: split reporter; NanoBiT split luciferase; LgBiT- and SmBiT-tagged constructs (N- or C-terminal tags) co-transfected into HEK293 cells in 96-well plates, 100 ng plasmid per well; luminescence with background subtracted
[2] = target: T1, N-terminal-tagged FOXA1 (NanoBiT construct); experiment: as above
[3] = target: T2, Forkhead box A1 (FOXA1), endogenous in prostate cancer cells (human (endogenous in LNCaP and CWR-R1)); experiment: co-IP; endogenous proteins in sonicated lysates of LNCaP and CWR-R1 cells; immunoprecipitated on Protein G Dynabeads with anti-AR (PG-21), anti-FOXA1 or normal rabbit IgG; eluates analysed by Western blot

Row | binding [1] | binding [2] | binding [3] | Molecule
1 | binds | binds | – | N-terminal-tagged NKX3.1 (NanoBiT construct) (from UniProt Q99801 1-234)
2 | – | – | binds | homeobox transcription factor NKX3.1, endogenous in prostate cancer cells (from UniProt Q99801 1-234)
3 | binds | – | – | N-terminal-tagged FOXA1 (NanoBiT construct) (protein, UniProt P55317 1-472) MLGTVKMEGHETSDWNSYYADTQEAYSSVPVSNMNSGLGSMNSMNTYMTMNTMTTSGNMTPASFNMSYANPGLGAGLSPGAVAGMPGGSAGAMNSMTAAGVTAMGTALSPSGMGAMGAQQAASMNGLGPYAAAMNPCMSPMAYAPSNLGRSRAGGGGDAKTFKRSYPHAKPPYSYISLITMAIQQAPSKMLTLSEIYQWIMDLFPYYRQNQQRWQNSIRHSLSFNDCFVKVARSPDKPGKGSYWTLHPDSGNMFENGCYLRRQKRFKCEKQPGAGGGGGSGSGGSGAKGGPESRKDPSGASNPSADSPLHRGVHGKTGQLEGAPAPGPAASPQTLDHSGATATGGASELKTPASSTAPPISSGPGALASVPASHPAHGLAPHESQLHLKGDPHYSFNHPFSINNLMSSSEQQHKLDFKAYEQALQYSPYGSTLPASLPLGSASVTTRSPIEPSALEPAYYQGVYSRPVLNTS
